According to patent publication US20250268948A1, “COMPOSITIONS AND METHODS FOR TREATING POST ACUTE SEQUELAE OF SARS-COV-2 INFECTION (LONG COVID)” (priority 2022, published 2025):
Some results were stated once for a whole list of compounds, not compound by compound.

Legend:
Assay in all cases: qPCR gene expression analysis in human MSCs
Format in all cases: cell-based
Conditions in all cases: 250 μM VPA, 500 nM curcumin; up to 2 weeks; FIG. 13
[1] = test system: FGF-21
Protocol: (§1) Beta actin was measured as a house-keeping gene. […] Gene expression was quantified by determining the amount of gene-specific DNA/total cDNA. Data are mean+/−SD of 4 replicates.
(§2) Native human umbilical cord-derived MSCs (Vitro Biopharma Cat. No. SC00A1) were expanded from cryopreservation in a T-25 TC-coated flasks (BD Falcon, Cat. No. 353108) in MSC-GRO™ low serum, complete medium (Vitro Biopharma Cat. No. SC00BI). Cells were subcultured and counted on a Beckerman-Coulter Z2 particle counter (range 10 μm-30 μm). Cells were plated at 10,000/cm^2 a TC-coated Greiner Bio-One T75 flask and maintained in MSC-GRO™ serum free, complete medium (Vitro Biopharma Cat. No. SC00B3) in a reduced 02 environment (1% O2, 5% CO2, 94% N2) at 37° C. in a humidified chamber. The MSCs were treated continuously for up to 2 weeks. Cultures were fed every three days. Cells were harvested using ACCUTASE™ (Innovative Cell Technologies Inc., Cat No AT-104) and centrifuged (450×g) for 7 minutes. Cell supernatant was aspirated off and cells were resuspended in 1 mL PBS and counted on a Beckerman-Coulter Z2 particle counter (range 10 μm-30 μm). Total RNA was extracted using RNeasy Mini Kit (Qiagen Cat. No. 74104). RNA was quantified using an absorbance measurement at 260 nm. RNA was converted to cDNA using Quantitect Reverse Transcription Kit (Qiagen Cat. No. 205310) in a thermocycler. RNA was incubated in the gDNA elimination reaction for 2 minutes at 42° C. then incubated in the reverse-transcription master mix for 15 minutes at 42° C. […] Dilution factors and cDNA concentrations were calculated into recorded values then normalized to untreated hMSCs (Vitro Biopharma Cat. No. SC00A1).
(§3) Gene expression was quantified by determining the amount of gene-specific DNA/total cDNA. […]
(§4) Native human umbilical cord-derived MSCs (Vitro Biopharma Cat. No. SCOOA1) were expanded from cryopreservation in a T-25 TC-coated flasks (BD Falcon, Cat. No. 353108) in MSC-GRO™ low serum, complete medium (Vitro Biopharma Cat. No. SC00B1). Cells were subcultured and counted on a Beckerman-Coulter Z2 particle counter (range 10 μm-30 μm). […] Cell supernatant was aspirated off and cells were resuspended in 1 mL PBS and counted on a Beckerman-Coulter Z2 particle counter (range 10 μm-30 μm).
(§5) Total RNA was extracted using RNeasy Mini Kit (Qiagen Cat. No. 74104). RNA was quantified using an absorbance measurement at 260 nm. RNA was converted to cDNA using Quantitect Reverse Transcription Kit (Qiagen Cat. No. 205310) in a thermocycler. […] Dilution factors and cDNA concentrations were calculated into recorded values then normalized to untreated hMSCs (Vitro Biopharma Cat. No. SC00A1).

[2] = test system: SIRT-1
Protocol: as §1, §2, §3, §4, §5

[3] = test system: CXCR4
Protocol: (§6) Gene expression was quantified by determining the amount of gene-specific DNA/total cDNA. Data are mean+/−S.D. of 4 replicates.
(§7) Native human umbilical cord-derived MSCs (Vitro Biopharma Cat. No. SCOOA1) were expanded from cryopreservation in a T-25 TC-coated flasks (BD Falcon, Cat. No. 353108) in MSC-GRO™ low serum, complete medium (Vitro Biopharma Cat. No. SC00B1). Cells were subcultured and counted on a Beckerman-Coulter Z2 particle counter (range 10 μm-30 μm). […] The MSCs were treated continuously for up to 2 weeks. Cultures were fed every three days. Cells were harvested using ACCUTASE™ (Innovative Cell Technologies Inc., Cat No AT-104) and centrifuged (450×g) for 7 minutes. Cell supernatant was aspirated off and cells were resuspended in 1 mL PBS and counted on a Beckerman-Coulter Z2 particle counter (range 10 μm-30 μm).
(§8) Total RNA was extracted using RNeasy Mini Kit (Qiagen Cat. No. 74104). RNA was quantified using an absorbance measurement at 260 nm. RNA was converted to cDNA using Quantitect Reverse Transcription Kit (Qiagen Cat. No. 205310) in a thermocycler. RNA was incubated in the DNA elimination reaction for 2 minutes at 42° C. then incubated in the reverse-transcription master mix for 15 minutes at 42° C. Immediately after, it was incubated at 95° C. for 3 minutes for inactivation. cDNA was sent to an outside lab (CU-Anschutz Metabolic Laboratory) for q-PCR to detect relative or absolute gene expression levels. cDNA was diluted 1:5 and iTaq Universal Supermix fluorescent probe (BioRad Cat. No. 172-5120) used to detect the threshold cycle (Ct) during PCR. Dilution factors and cDNA concentrations were calculated into recorded values then normalized to untreated hMSCs (Vitro Biopharma Cat. No. SC00A1).

[4] = test system: Hsp70
Protocol: as §6, §7, §8

SMILES	FGF-21 expression increase [1] [fold]	SIRT-1 expression increase [2]	CXCR4 expression increase [3] [fold]	Hsp70 expression increase [4] [fold]
COc1cc(/C=C/C(=O)CC(=O)/C=C/c2ccc(O)c(OC)c2)ccc1O [curcumin]	≤ 25	at least 200 fold	≤ 25	≤ 25
CCCC(CCC)C(=O)O [VPA, valproic acid]	≤ 25	at least 200 fold	≤ 25	≤ 25
